These are yes or no findings as the source states them, for the method shown. Binding seen in cells or lysates may run through a third protein. These calls come from enrichment with a bait or labelling near it, and not all partners need be listed.

Sequences of proteins named here, by UniProt entry; tags and fusion partners are left off.
UniProt Q7TMB8: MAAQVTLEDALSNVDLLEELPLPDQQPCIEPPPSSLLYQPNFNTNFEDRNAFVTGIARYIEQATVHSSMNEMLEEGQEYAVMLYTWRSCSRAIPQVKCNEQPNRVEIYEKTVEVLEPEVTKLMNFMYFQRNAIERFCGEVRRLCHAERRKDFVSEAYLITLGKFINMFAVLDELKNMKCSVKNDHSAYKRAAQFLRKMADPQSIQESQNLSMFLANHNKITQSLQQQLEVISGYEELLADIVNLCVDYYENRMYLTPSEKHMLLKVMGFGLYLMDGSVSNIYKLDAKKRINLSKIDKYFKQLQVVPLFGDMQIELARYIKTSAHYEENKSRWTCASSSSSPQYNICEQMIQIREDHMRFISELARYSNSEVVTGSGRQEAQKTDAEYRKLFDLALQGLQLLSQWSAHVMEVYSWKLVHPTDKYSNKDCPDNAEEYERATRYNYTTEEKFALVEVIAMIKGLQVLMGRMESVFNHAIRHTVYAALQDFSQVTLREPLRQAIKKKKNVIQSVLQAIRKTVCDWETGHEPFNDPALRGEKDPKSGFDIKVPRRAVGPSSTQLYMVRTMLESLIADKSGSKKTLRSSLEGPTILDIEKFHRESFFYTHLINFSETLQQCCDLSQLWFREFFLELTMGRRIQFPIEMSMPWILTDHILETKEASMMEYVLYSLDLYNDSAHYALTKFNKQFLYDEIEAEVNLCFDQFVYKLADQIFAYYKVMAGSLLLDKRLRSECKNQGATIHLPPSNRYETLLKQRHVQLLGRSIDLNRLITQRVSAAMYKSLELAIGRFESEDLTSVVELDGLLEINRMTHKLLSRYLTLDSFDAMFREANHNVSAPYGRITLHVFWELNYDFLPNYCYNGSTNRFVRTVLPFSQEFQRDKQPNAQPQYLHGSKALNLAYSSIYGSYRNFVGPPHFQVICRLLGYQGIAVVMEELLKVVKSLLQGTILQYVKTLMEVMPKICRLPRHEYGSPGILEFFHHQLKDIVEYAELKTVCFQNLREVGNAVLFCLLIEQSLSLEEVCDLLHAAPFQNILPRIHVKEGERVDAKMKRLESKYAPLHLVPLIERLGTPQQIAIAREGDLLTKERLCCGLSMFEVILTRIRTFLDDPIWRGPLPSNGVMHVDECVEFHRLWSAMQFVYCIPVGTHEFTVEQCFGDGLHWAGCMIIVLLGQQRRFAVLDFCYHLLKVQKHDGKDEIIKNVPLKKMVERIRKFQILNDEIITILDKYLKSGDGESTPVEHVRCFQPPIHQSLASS
UniProt P29341: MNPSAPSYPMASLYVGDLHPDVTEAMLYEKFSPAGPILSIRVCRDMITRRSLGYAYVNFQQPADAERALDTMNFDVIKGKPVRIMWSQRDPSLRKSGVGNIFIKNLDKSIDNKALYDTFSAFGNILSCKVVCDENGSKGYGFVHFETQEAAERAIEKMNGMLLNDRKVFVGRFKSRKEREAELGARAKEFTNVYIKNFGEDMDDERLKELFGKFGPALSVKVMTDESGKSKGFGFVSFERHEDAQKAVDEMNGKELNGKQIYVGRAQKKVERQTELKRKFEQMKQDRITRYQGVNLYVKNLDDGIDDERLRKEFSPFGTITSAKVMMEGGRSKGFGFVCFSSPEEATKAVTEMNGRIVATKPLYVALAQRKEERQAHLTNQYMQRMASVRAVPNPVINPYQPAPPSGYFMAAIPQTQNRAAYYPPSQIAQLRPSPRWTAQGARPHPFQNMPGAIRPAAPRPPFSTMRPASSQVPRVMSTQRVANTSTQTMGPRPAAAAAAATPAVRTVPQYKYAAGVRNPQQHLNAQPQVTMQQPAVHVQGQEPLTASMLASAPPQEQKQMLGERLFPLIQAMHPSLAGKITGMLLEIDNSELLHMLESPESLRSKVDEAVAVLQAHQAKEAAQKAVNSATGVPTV

Among the data in paper PMC3781321 are binding values, retold here.

This experiment deals with cytoplasmic FMRP-interacting protein 1 (CYFIP1), mouse, endogenous (mouse (endogenous in cortex)) (UniProt Q7TMB8). Nature of the experiment: affinity purification with mass spectrometry; IP with anti-CYFIP1 antibody from mouse whole cortical lysates, tandem MS; rabbit IgGs as negative control; n = 3.

Take “PABP1, mouse, endogenous (from UniProt P29341 1-636)”: the binding result is “binds”.

B1: Caprin1, mouse, endogenous (protein, UniProt Q60865 1-707)
chain: MPSATSHSGSGSKSSGPPPPSGSSGSEAAAGAAAPASQHPATGTGAVQTEAMKQILGVIDKKLRNLEKKKGKLDDYQERMNKGERLNQDQLDAVSKYQEVTNNLEFAKELQRSFMALSQDIQKTIKKTARREQLMREEAEQKRLKTVLELQYVLDKLGDDDVRTDLKQGLSGVPILSEEELSLLDEFYKLVDPERDMSLRLNEQYEHASIHLWDLLEGKEKPVCGTTYKALKEIVERVFQSNYFDSTHNHQNGLCEEEEAASAPTVEDQVAEAEPEPAEEYTEQSEVESTEYVNRQFMAETQFSSGEKEQVDEWTVETVEVVNSLQQQPQAASPSVPEPHSLTPVAQSDPLVRRQRVQDLMAQMQGPYNFIQDSMLDFENQTLDPAIVSAQPMNPTQNMDMPQLVCPQVHSESRLAQSNQVPVQPEATQVPLVSSTSEGYTASQPLYQPSHATEQRPQKEPMDQIQATISLNTDQTTASSSLPAASQPQVFQAGTSKPLHSSGINVNAAPFQSMQTVFNMNAPVPPANEPETLKQQSQYQATYNQSFSSQPHQVEQTELQQDQLQTVVGTYHGSQDQPHQVPGNHQQPPQQNTGFPRSSQPYYNSRGVSRGGSRGARGLMNGYRGPANGFRGGYDGYRPSFSNTPNSGYSQSQFTAPRDYSGYQRDGYQQNFKRGSGQSGPRGAPRGRGGPPRPNRGMPQMNTQQVN
For B1, the binding entry is reported as “binds”.
